In patent US7297515 (MYRIAD GENETICS, dated 2007):
Where two headings read alike, the source gives them in different places. No constants are given. Whether binding was seen depends on the method and setting. Some binding calls cover weakened binding; strength is not graded here.

Chains of the proteins cited; added tags and fusions are not shown. Lines headed by an entry give the natural chain unless they say otherwise; changes in a name come on top.
UniProt P17040: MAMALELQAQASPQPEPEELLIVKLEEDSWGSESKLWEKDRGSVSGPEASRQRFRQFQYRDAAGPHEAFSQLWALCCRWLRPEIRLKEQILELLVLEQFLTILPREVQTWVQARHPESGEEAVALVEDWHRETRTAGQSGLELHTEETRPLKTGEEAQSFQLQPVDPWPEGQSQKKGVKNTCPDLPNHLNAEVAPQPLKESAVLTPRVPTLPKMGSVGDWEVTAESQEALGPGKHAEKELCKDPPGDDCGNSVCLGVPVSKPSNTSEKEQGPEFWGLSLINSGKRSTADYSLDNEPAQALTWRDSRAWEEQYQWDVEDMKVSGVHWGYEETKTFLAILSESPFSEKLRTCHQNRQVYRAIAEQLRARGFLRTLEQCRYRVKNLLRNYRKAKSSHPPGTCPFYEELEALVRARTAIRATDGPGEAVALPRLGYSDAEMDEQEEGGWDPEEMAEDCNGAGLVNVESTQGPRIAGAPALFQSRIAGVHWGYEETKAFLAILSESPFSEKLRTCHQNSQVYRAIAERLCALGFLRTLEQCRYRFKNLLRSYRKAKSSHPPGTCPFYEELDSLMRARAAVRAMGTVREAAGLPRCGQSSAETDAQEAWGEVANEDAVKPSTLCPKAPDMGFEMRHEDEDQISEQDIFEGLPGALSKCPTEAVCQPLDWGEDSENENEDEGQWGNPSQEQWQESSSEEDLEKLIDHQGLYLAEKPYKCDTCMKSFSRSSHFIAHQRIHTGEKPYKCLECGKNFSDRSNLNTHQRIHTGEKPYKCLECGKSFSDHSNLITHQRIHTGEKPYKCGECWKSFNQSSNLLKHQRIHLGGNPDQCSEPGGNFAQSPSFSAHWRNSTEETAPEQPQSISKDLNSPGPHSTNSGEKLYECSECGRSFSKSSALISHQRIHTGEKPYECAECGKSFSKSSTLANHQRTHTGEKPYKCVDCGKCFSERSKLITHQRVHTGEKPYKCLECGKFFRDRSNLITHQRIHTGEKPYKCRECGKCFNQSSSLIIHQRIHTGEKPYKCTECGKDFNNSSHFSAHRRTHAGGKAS

B1: fragment of PN7745 of SEQ ID NO:26 (protein)
chain: NAADAESFRQRFRWFCYSEVAGPRKALSQLWELCNQWLRPDIHTKEQILELLVFEQFLTILPGEIRIWVKSQHPESSEEVVTLIEDLTQILEEKDPVSEDSTVSQEENSKEDKMVTVCPNTESCESAL

Assays:
[1] = biological target: T1, ZNF202 (bait form not given) (human) (UniProt O95125); assay: yeast two-hybrid (bait fragment not given)
T1 sequence (looked up): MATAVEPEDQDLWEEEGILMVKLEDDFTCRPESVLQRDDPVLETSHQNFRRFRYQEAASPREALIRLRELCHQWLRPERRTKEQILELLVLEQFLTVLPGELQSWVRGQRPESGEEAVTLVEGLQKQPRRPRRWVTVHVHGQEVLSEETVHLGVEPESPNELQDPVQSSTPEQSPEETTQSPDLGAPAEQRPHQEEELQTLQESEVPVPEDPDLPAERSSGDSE

[2] = biological target: T1, ZNF202 (bait form not given) (human); assay: yeast two-hybrid (bait fragment not given); remark: listed apart in the source

| Molecule | binding [1] | binding [2] |
| --- | --- | --- |
| fragment of PN1851 of SEQ ID NO:13 (from UniProt P17040 14-369) | binds |  |
| B1 |  | binds |
